For this assay, the target named is malate carrier protein (mouse). The assay is described as follows: anti-αBC immunoprecipitation from mouse heart mitochondria, MudPIT proteomics.

Results are given in words; binding and its absence hold for the method and conditions named. In cells and extracts the contact can be indirect. These calls come from enrichment with a bait or labelling near it, and not all partners need be listed.

B1: endogenous alpha B-crystallin (αBC) of mouse heart mitochondria (protein, UniProt P23927 1-175, looked up)
chain: MDIAIHHPWIRRPFFPFHSPSRLFDQFFGEHLLESDLFSTATSLSPFYLRPPSFLRAPSWIDTGLSEMRLEKDRFSVNLDVKHFSPEELKVKVLGDVIEVHGKHEERQDEHGFISREFHRKYRIPADVDPLTITSSLSSDGVLTVNGPRKQVSGPERTIPITREEKPAVAAAPKK
On to B1, for which the binding result was “binds”.

These data come from patent US20120124684A1.
